PubChem BioAssay AID1508597 | Cure First – 2020
Shown is a random part of the about 2,100 reagents, in one setting of the screen. 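Calls flag viability under 80% in either arm, not effects specific to rucaparib; the reference for percent is not stated.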 Some reagents were tested in more than one well and are listed for each. Not stated in the record: the 100% reference.

- Aim: 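Genes whose silencing sensitises or protects ovarian cancer cells against rucaparib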 (primary screen)
- System: human ovarian carcinoma lines grown from tumours: OCI-P5x (papillary serous) and OCI-C5x (clear cell)
- Reagents: siRNA pool against human genes, 1.25 pmol siRNA per well
- Timing: 72 h or 96 h, depending on the cell culture
- Treatment: rucaparib 20 µM (about IC30) or vehicle, present until read-out
- Rucaparib or vehicle: Vehicle
- Cell line: OCI-P5x (serous)
- Detection: 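ATP luminescence measured at 72 or 96 h according to the culture, then normalised and expressed as percent viability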
- Scale: viability, normalised: higher = more viable cells remaining
- Active means: 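a well counts as a hit if its normalised viability is under 80 percent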
- Calls: active = viability under 80%; inactive = viability 80% or more

gene symbol | technical replicate | viability, normalised (%) | outcome
RNF17 (ring finger protein 17) | 1 | 70.4 | active
RNF17 (ring finger protein 17) | 2 | 76.2 | active
RNF17 (ring finger protein 17) | 3 | 85.6 | inactive
PDE5A (phosphodiesterase 5A) | 1 | 75.8 | active
PDE5A (phosphodiesterase 5A) | 2 | 59.2 | active
PDE5A (phosphodiesterase 5A) | 3 | 79.7 | active
UBTF (upstream binding transcription factor) | 1 | 68.6 | active
UBTF (upstream binding transcription factor) | 2 | 65.1 | active
UBTF (upstream binding transcription factor) | 3 | 39.8 | active
PER1 (period circadian regulator 1) | 1 | 63.5 | active
PER1 (period circadian regulator 1) | 1 | 56.5 | active
PER1 (period circadian regulator 1) | 2 | 53.7 | active
PER1 (period circadian regulator 1) | 2 | 72.6 | active
PER1 (period circadian regulator 1) | 3 | 52 | active
PER1 (period circadian regulator 1) | 3 | 55.8 | active

A portion taken from the entries so far, as a working copy:
gene symbol | technical replicate | viability, normalised (%) | outcome
RNF17 (ring finger protein 17) | 2 | 76.2 | active
RNF17 (ring finger protein 17) | 3 | 85.6 | inactive
PDE5A (phosphodiesterase 5A) | 1 | 75.8 | active
PDE5A (phosphodiesterase 5A) | 2 | 59.2 | active

Next results:
gene symbol | technical replicate | viability, normalised (%) | outcome
CDKL2 (cyclin dependent kinase like 2) | 1 | 98 | inactive
CDKL2 (cyclin dependent kinase like 2) | 2 | 85.1 | inactive
CDKL2 (cyclin dependent kinase like 2) | 3 | 98.2 | inactive
PIWIL4 (piwi like RNA-mediated gene silencing 4) | 1 | 57.6 | active
PIWIL4 (piwi like RNA-mediated gene silencing 4) | 2 | 59.8 | active
PIWIL4 (piwi like RNA-mediated gene silencing 4) | 3 | 74.5 | active
DROSHA (drosha ribonuclease III) | 1 | 61.9 | active
DROSHA (drosha ribonuclease III) | 2 | 67.7 | active
DROSHA (drosha ribonuclease III) | 3 | 108 | inactive
APC (APC regulator of Wnt signaling pathway) | 1 | 44.2 | active
APC (APC regulator of Wnt signaling pathway) | 1 | 63.2 | active
APC (APC regulator of Wnt signaling pathway) | 2 | 41 | active
APC (APC regulator of Wnt signaling pathway) | 2 | 47.1 | active
APC (APC regulator of Wnt signaling pathway) | 3 | 50 | active
APC (APC regulator of Wnt signaling pathway) | 3 | 46.7 | active
RBBP8 (RB binding protein 8, endonuclease) | 1 | 62.3 | active
RBBP8 (RB binding protein 8, endonuclease) | 1 | 65.4 | active
RBBP8 (RB binding protein 8, endonuclease) | 2 | 63.7 | active
RBBP8 (RB binding protein 8, endonuclease) | 2 | 72.4 | active
RBBP8 (RB binding protein 8, endonuclease) | 3 | 99.7 | inactive
RBBP8 (RB binding protein 8, endonuclease) | 3 | 56.2 | active
CDK13 (cyclin dependent kinase 13) | 1 | 64.6 | active
CDK13 (cyclin dependent kinase 13) | 2 | 68.6 | active
CDK13 (cyclin dependent kinase 13) | 3 | 82.8 | inactive
